Results: PubChem BioAssay AID662 (National Center for Advancing Translational Sciences (NCATS), 2007)
Some of the results follow. These are further read-outs of the screen, such as a control signal, another cell line or another target. No call is given for them. Compounds called inactive in the main read-out are mostly missing here. Words in brackets tell the shape of the fitted curve; partial curves, single points and poor fits give uncertain potencies.

Experiment: Cell signaling CRE-BLA (Fsk stim)
Settings: CHO CRE-bla reporter (cAMP response element driving beta-lactamase), forskolin EC10, beta-lactamase ratio; measured here: 460 nm blue channel
Excerpt: NIH Molecular Libraries Screening Centers Network [MLSCN]
NIH Chemical Genomics Center [NCGC]
Assay Provider: Marshall W. Nirenberg, U.S. National heart lung & blood institute
Memories persist for different lengths of time, from seconds or minutes to a lifetime. There are two kinds of memory: short-term memory (STM) and long-term memory (LTM). STM lasts for minutes to hours, which maybe mediated by modifications of molecules involved in synaptic functions. LTM lasts for days or longer, and may be due to the formation of new synapses or restructuring of existing synapses. LTM, but not STM, requires gene transcription and synthesis of proteins. CREB (cyclic-AMP Responsive Element Binding Protein) is one of the candidates plays an important role for enhancement of some types of LTM. CREB, a family of transcription factors, regulates the transcription of genes containing cAMP Responsive Elements (CRE). CRE is a nucleotide sequence often found in the promoter regions of genes that are binding sites for CREB.
Using a beta-lactamase reporter-gene under control of cAMP responsive element, a cell-based assay [CellSensor(TM) CRE-bla CHO developed by Invitrogen Corp.] was used to measure forskolin-induced signaling. Library compounds were measured for their ability to modulate positively or negatively the action of EC10 NKH 477, a water soluble forskolin, on reporter gene activity. Compounds were screened in a titration series in 1536-well format. Positive and negative modulators were identified based on the AC50 values derived from the screening data.
NCGC Assay Protocol Summary
2000 cells/5uL in Opti-MEM medium containing 0.5% dialyzed FBS, 0.1 mM NEAA, 1 mM sodium pyruvate and 10 mM HEPES was dispensed into 1536-well plates and cells were cultured at 37 degrees Celsius overnight. […] And then the plates were incubated at 37 degrees Celsius for 3 hours. 1 uL of CCF4-dye mixture was added to each well. After incubated at room temperature for 2 hours the plates were measured on an EnVision plate reader at Excitation 405nm, Emission1=460nm and Emission 2=530nm. The %Activity was determined from the ratio of 460nm/530nm.
Keywords: NIH Roadmap, MLSCN, MLSMR, qHTS, NCGC, CRE, beta-lactamase reporter-gene assay.

Which AC50 does the source give for `COc1ccc(CCNS(=O)(=O)c2ccc3c(c2)CCN3C(=O)CCC(=O)O)cc1OC` here?
Its AC50 is 0.631 µM [falling, full curve, poor fit].

With `Cc1c(C(=O)Nc2c(C)n(C)n(-c3ccccc3)c2=O)oc2ccccc12` as the compound, how does the AC50 read?
The AC50 was 0.631 µM [falling, partial curve].

Which AC50 does the source give for `Cc1cc(-c2ccccc2)c(C#N)c(SCC(N)=O)n1` here?
Its AC50 is 10 µM [rising, single point].

Which AC50 does the source give for `CCCCCCn1c(CN2CCN(CCO)CC2)nc2c1c(=O)n(C)c(=O)n2C` here?
Its AC50 is 10 µM [rising, partial curve].

Which AC50 does the source give for `C=CCNc1nc(-c2ccccc2)nc(-n2ccnc2)n1` here?
The AC50 was 5.01 µM [rising, partial curve].

For `CCC(=O)Nc1c(C#N)c2nc3ccccc3nc2n1-c1ccccc1C`, which AC50 is on record?
The AC50 was 12.6 µM [rising, partial curve].

With `Cc1ccc(-n2nc(-c3cccs3)cc2C(=O)NCC2CCCO2)c(C)c1` (stereo unspecified) as the compound, how does the AC50 read?
The AC50 was 3.16 µM [falling, partial curve].

Which AC50 does the source give for `Cn1c(=O)c(-c2cc(F)cc(F)c2)nc2cnc(N3CCNCC3)nc21` here?
The AC50 was 5.01 µM [rising, partial curve].

With `CCSc1nc2c(c(=O)[nH]c(=O)n2C)n1C/C=C(/C)Cl` as the compound, how does the AC50 read?
The AC50 was 2 µM [rising, full curve].

Which AC50 does the source give for `CCc1c(C)nc2ncnn2c1N1CCCC(C(=O)NCCc2ccccc2)C1` (stereo unspecified) here?
Its AC50 is 10 µM [rising, single point].

For `Cc1ccc(C(=O)OCC(=O)Nc2sc3c(c2C#N)CCCCC3)cc1NC(=O)c1ccco1`, which AC50 is on record?
Its AC50 is 5.01 µM [falling, single point].

Which AC50 does the source give for `Cc1cc(NC(=O)c2cc3nc(C4CC4)cc(C(F)(F)F)n3n2)no1` here?
The AC50 was 12.6 µM [rising, single point].

For `COc1ccc(CCN2C(=O)c3[nH]nc(-c4ccccc4O)c3C2c2ccc(C)cc2)cc1OC` (stereo unspecified), which AC50 is on record?
The AC50 was 25.1 µM [falling, single point].

With `CCOC(=O)c1c(C)oc2ccc(OC(=O)N3CCOCC3)cc12` as the compound, how does the AC50 read?
Its AC50 is 12.6 µM [rising, partial curve].

For `O=C(C1CC1)n1cc(C(=S)N2CCOCC2)c2ccccc21`, which AC50 is on record?
The AC50 was 12.6 µM [rising, partial curve].

For `Cc1ccc(S(=O)(=O)n2nc(C)c(Br)c2C)c(C)c1C`, which AC50 is on record?
Its AC50 is 0.0631 µM [falling, full curve].

For `Cc1ccccc1-c1ccc2ncnc(NCCN3CCOCC3)c2c1`, which AC50 is on record?
Its AC50 is 12.6 µM [rising, partial curve].

For `CCC1CCCCN1Cc1nc2c(c(=O)n(C)c(=O)n2C)n1CCCc1ccccc1` (stereo unspecified), which AC50 is on record?
Its AC50 is 25.1 µM [rising, single point].

For `O=C(CCC1CCCC1)c1c(O)c2ccccc2oc1=O`, which AC50 is on record?
Its AC50 is 12.6 µM [falling, single point].

For `CCOC(=O)c1[nH]c(CSc2nnnn2-c2ccccc2C)c(C(=O)OCC)c1C`, which AC50 is on record?
Its AC50 is 25.1 µM [rising, single point].

Which AC50 does the source give for `CC1(c2ccccc2)CC(c2ccccc2)=Nc2nonc2N1` (stereo unspecified) here?
Its AC50 is 3.98 µM [falling, full curve].

Which AC50 does the source give for `CC(=O)c1cccc(NC(=O)c2cc3nc(C)cc(C)n3n2)c1` here?
Its AC50 is 10 µM [rising, partial curve].

For `COc1ccccc1N1CCN(CC(=O)c2c(C)[nH]c3cc(C)ccc23)CC1`, which AC50 is on record?
Its AC50 is 5.01 µM [falling, partial curve, poor fit].

Which AC50 does the source give for `COc1c(Br)cc2c(C)c(C(=O)N3CCOCC3)oc2c1Br` here?
The AC50 was 12.6 µM [rising, partial curve].

With `CCOc1ccc2[nH]c(=O)c(CN(Cc3cccnc3)C(=O)Nc3ccccc3OC)cc2c1` as the compound, how does the AC50 read?
The AC50 was 12.6 µM [rising, single point].

Which AC50 does the source give for `CN1CCN(c2ncc3nc(-c4cc(F)cc(F)c4)c(=O)n(CCC#N)c3n2)CC1` here?
Its AC50 is 6.31 µM [rising, partial curve].

Which AC50 does the source give for `NS(=O)(=O)c1cccc2c1c([N+](=O)[O-])cc1[nH]c(=O)c(=O)[nH]c12` here?
Its AC50 is 31.6 µM [falling, single point].

Which AC50 does the source give for `COc1ccc2cc3cc(C(=O)NCCN4CCc5ccccc5C4)oc3nc2c1` here?
Its AC50 is 0.794 µM [rising, full curve].

For `Cc1noc(C)c1C(=O)NCc1ccco1`, which AC50 is on record?
The AC50 was 7.94 µM [falling, partial curve].

Which AC50 does the source give for `Cc1ccc(-c2noc(CCC(=O)Nc3cccc(C#N)c3)n2)cc1` here?
Its AC50 is 0.00398 µM [falling, full curve, poor fit].

With `CC1CCCCN1C(=O)c1cnn2c(C(F)(F)F)cc(-c3ccco3)nc12` (stereo unspecified) as the compound, how does the AC50 read?
The AC50 was 12.6 µM [rising, single point].

Which AC50 does the source give for `CCC(Oc1ccccc1)C(=O)Nc1ccc(-c2nnc(-c3ccco3)o2)cc1` (stereo unspecified) here?
The AC50 was 12.6 µM [rising, single point].

For `COC(=O)C1=C(C)NC(C)=C(C(=O)OC)C1C(=O)OCCN1C(=O)c2ccccc2C1=O`, which AC50 is on record?
Its AC50 is 5.01 µM [falling, single point].

For `CCNc1ncc2nc(-c3cc(F)cc(F)c3)c(=O)n(C3CC3)c2n1`, which AC50 is on record?
Its AC50 is 3.16 µM [rising, full curve].

Which AC50 does the source give for `COC(=O)[C@@]1(Cc2ccccc2)[C@H]2c3cc(C(=O)N4CCCC4)n(Cc4ccc(O)c(OC)c4)c3C[C@H]2CN1C(=O)c1ccccc1` here?
Its AC50 is 12.6 µM [rising, partial curve].

For `N#Cc1c(SCC(N)=O)nc2c(c1-c1ccc(O)cc1)CCCC2`, which AC50 is on record?
The AC50 was 10 µM [rising, partial curve].

Which AC50 does the source give for `COc1cc(C(=O)NCCC(=O)NC2CCCCCCC2)cc(OC)c1OC` here?
The AC50 was 2 µM [falling, single point].

Which AC50 does the source give for `COc1ccc(C2=NOC(C(=O)Nc3cc(C)nn3-c3ccccc3)C2)cc1OC` (stereo unspecified) here?
Its AC50 is 2.51 µM [rising, full curve].

Which AC50 does the source give for `CCOc1nc(C)ccc1-c1noc(-c2ccco2)n1` here?
Its AC50 is 6.31 µM [rising, partial curve].

Which AC50 does the source give for `Cc1cccc(Cn2c(SCC(=O)Nc3ccccc3)nc3c2c(=O)[nH]c(=O)n3C)c1` here?
The AC50 was 10 µM [rising, partial curve].

Which AC50 does the source give for `Cc1c(NC(=O)COC(=O)c2cc3c4ccccc4n(C)c3s2)c(=O)n(-c2ccccc2)n1C` here?
The AC50 was 1 µM [rising, partial curve].

With `Cc1ccc(C(=O)C2=C(O)C(=O)N(CCCN(C)C)C23C(=O)N(C)c2ccccc23)o1` (stereo unspecified) as the compound, how does the AC50 read?
Its AC50 is 1 µM [falling, partial curve].

With `Nc1nc(SCc2ccccc2)[nH]c(=O)c1-c1ccccc1` as the compound, how does the AC50 read?
The AC50 was 0.00398 µM [falling, full curve, poor fit].

For `CCc1c(C)c(C#N)c2nc3ccccc3n2c1Nc1c(C)n(C)n(-c2ccccc2)c1=O`, which AC50 is on record?
The AC50 was 25.1 µM [rising, single point].

Which AC50 does the source give for `CCOc1ccccc1NC(=O)c1ccccc1-c1nc(-c2ccccc2OC)no1` here?
Its AC50 is 0.02 µM [falling, full curve, poor fit].

For `CN(CC[C@@H](Oc1ccc(-c2ccccc2)cc1)c1ccc(F)cc1)CC(=O)O`, which AC50 is on record?
The AC50 was 3.98 µM [falling, partial curve, poor fit].

For `COCCNC(=O)CSc1nc2nc(C)cc(C)n2n1`, which AC50 is on record?
Its AC50 is 0.01 µM [rising, full curve].

For `CN(Cc1ccco1)c1ncnc2ccc(-c3ccoc3)cc12`, which AC50 is on record?
Its AC50 is 0.316 µM [falling, full curve].

Which AC50 does the source give for `Cc1noc(C)c1CSc1nnc(-c2cc(Cl)ccc2Cl)n1N` here?
The AC50 was 10 µM [rising, partial curve].

For `Cc1noc(C)c1-c1ccc2ncnc(N3CCN(C)CC3)c2c1`, which AC50 is on record?
Its AC50 is 6.31 µM [rising, partial curve].

Which AC50 does the source give for `CN(C)c1ccc(C2=NOC(CN3C(=O)c4ccccc4S3(=O)=O)C2)cc1` (stereo unspecified) here?
The AC50 was 10 µM [falling, partial curve].

Which AC50 does the source give for `Cn1cc(-c2nc3cnc(N4CCNCC4)nc3n(CCC#N)c2=O)c2ccccc21` here?
Its AC50 is 10 µM [rising, partial curve].

With `CCOC(=O)CSc1ccc2nnc(-c3cccnc3)n2n1` as the compound, how does the AC50 read?
Its AC50 is 12.6 µM [rising, partial curve].

Which AC50 does the source give for `CCOc1ccccc1-n1c(SCC(=O)NC(C)CC)nnc1-c1ccoc1C` (stereo unspecified) here?
Its AC50 is 0.00398 µM [falling, full curve, poor fit].

For `Clc1cccc(Nc2c3c(nc4ncnn24)CCC3)c1`, which AC50 is on record?
The AC50 was 12.6 µM [rising, partial curve].

Which AC50 does the source give for `COc1ccc(CCn2c(=N)c(C(=O)NCc3ccco3)cc3c(=O)n4cccc(C)c4nc32)cc1` here?
Its AC50 is 10 µM [rising, single point].

Which AC50 does the source give for `Cn1c2ccccc2c2nnc(SCN3C(=O)c4ccccc4C3=O)nc21` here?
Its AC50 is 3.16 µM [rising, single point].

Which AC50 does the source give for `COC(=O)CC1=C(C)C(=O)CC2C(C)(C)CCCC12C` (stereo unspecified) here?
The AC50 was 3.98 µM [falling, partial curve].

With `CCCCOC(=O)C(C#N)c1nc2ccccc2nc1N1CCN(Cc2ccc3c(c2)OCO3)CC1` (stereo unspecified) as the compound, how does the AC50 read?
The AC50 was 25.1 µM [rising, single point].

For `COc1ccc2c(c1)S/C(=C\C(=O)c1ccncc1)N2C`, which AC50 is on record?
Its AC50 is 12.6 µM [rising, single point].

With `Cc1ccc(S(=O)(=O)c2nc(C(C)(C)C)oc2N2CCOCC2)cc1` as the compound, how does the AC50 read?
Its AC50 is 12.6 µM [rising, single point].

For `Cc1cc(C(=O)CSc2nn(-c3ccccc3)c(=S)s2)c(C)n1Cc1ccco1`, which AC50 is on record?
Its AC50 is 1 µM [falling, full curve, poor fit].

Which AC50 does the source give for `COc1ccc(-c2csc(N3CCOCC3)n2)cc1OC` here?
The AC50 was 10 µM [rising, partial curve].

Which AC50 does the source give for `COc1ccccc1NC(=O)Nc1ccc(Br)cn1` here?
The AC50 was 3.16 µM [falling, full curve].

With `Cc1ccc(C(=O)CSc2nnc(CNc3nc(-c4ccccc4)cs3)n2C)cc1` as the compound, how does the AC50 read?
The AC50 was 5.01 µM [falling, single point].

Which AC50 does the source give for `COc1ccc2[nH]cc(CCNc3ncncc3-c3cccnc3)c2c1` here?
Its AC50 is 12.6 µM [rising, single point].
